Screening data, single-dose tests

The chains behind the UniProt entries cited, without tags or fusion partners. Residues count along the entry.
UniProt Q8IDJ8, 1-583: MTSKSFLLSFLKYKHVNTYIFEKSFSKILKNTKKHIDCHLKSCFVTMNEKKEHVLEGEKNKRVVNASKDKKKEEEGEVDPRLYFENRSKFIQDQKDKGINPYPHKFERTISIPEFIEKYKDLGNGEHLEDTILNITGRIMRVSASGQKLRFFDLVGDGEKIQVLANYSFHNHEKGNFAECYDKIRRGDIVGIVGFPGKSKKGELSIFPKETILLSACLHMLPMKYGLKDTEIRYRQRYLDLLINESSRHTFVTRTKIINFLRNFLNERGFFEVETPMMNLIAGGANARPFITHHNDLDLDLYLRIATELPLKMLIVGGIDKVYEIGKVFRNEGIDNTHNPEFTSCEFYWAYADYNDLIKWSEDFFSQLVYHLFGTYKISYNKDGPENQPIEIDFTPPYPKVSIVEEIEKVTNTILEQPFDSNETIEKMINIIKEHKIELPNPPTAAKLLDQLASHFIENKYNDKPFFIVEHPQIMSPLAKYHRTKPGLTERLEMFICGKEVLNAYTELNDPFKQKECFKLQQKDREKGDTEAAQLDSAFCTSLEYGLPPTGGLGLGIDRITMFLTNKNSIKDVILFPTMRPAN
UniProt I6X8D2, whole entry: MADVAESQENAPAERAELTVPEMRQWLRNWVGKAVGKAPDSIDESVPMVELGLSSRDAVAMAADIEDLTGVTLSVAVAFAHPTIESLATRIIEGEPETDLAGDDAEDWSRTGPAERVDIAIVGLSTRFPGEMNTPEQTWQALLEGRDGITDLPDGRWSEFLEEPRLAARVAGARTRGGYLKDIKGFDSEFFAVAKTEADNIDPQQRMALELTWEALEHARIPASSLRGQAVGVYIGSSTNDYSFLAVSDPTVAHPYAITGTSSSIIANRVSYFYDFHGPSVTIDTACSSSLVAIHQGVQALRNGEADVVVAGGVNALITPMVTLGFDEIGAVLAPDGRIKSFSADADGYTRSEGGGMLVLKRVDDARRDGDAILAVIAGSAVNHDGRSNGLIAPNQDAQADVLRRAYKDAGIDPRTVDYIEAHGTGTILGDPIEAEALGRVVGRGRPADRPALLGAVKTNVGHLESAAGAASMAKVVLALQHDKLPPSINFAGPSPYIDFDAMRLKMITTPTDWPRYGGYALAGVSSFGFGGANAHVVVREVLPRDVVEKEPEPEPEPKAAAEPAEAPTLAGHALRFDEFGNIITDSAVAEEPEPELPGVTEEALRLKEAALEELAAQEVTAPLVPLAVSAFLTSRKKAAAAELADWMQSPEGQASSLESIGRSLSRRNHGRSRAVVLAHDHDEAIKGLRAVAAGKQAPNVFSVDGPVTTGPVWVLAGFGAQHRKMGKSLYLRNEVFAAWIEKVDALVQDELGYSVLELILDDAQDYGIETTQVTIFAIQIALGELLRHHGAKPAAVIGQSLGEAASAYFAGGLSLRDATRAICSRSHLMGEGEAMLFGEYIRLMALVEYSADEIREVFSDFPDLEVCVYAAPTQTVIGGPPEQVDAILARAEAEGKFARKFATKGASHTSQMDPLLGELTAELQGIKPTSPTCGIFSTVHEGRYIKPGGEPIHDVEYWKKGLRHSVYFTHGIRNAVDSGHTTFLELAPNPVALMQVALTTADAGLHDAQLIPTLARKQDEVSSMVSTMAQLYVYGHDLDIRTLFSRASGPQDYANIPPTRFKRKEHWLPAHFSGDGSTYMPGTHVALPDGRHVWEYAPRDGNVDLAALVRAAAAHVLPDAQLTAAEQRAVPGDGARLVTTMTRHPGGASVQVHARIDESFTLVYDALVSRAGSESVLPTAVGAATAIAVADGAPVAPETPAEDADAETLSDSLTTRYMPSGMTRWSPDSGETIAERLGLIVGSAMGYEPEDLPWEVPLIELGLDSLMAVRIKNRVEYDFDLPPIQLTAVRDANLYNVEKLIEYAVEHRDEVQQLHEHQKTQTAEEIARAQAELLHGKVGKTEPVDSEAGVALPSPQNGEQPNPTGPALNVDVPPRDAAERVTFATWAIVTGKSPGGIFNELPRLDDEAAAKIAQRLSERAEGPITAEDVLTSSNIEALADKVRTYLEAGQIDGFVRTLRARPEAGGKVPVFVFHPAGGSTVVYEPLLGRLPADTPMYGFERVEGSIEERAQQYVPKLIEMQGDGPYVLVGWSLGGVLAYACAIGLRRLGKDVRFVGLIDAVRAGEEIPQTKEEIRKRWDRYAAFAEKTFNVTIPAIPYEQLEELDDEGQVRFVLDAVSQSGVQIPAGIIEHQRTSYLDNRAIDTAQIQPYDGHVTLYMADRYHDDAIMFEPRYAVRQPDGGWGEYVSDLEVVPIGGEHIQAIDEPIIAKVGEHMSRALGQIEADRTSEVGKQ
UniProt P9WNZ1, whole entry: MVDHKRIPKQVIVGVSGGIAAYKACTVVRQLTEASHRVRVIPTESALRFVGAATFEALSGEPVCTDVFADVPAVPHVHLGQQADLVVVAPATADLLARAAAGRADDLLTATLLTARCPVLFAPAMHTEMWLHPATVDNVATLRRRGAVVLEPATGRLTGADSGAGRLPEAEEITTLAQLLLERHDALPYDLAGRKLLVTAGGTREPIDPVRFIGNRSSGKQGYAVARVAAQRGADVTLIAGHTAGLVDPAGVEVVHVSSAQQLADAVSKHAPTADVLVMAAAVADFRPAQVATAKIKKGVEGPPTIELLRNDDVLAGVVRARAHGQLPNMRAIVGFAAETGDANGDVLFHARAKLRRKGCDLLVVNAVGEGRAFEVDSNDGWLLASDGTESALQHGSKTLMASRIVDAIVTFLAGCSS
UniProt Q4DA54, 1-478: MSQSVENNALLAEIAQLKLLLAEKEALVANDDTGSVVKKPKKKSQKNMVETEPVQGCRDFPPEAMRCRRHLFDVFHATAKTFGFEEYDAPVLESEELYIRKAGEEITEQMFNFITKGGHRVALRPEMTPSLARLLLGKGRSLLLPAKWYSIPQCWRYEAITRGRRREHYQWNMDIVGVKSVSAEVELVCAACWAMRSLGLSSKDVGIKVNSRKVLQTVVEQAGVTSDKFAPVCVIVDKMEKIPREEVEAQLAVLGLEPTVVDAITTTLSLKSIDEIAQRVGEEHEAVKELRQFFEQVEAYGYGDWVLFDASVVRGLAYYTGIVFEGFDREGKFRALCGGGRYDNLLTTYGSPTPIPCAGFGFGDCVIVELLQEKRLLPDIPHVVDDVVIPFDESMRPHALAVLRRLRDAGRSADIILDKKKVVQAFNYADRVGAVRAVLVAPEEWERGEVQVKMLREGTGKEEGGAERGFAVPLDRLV
UniProt P9WFT3, whole entry: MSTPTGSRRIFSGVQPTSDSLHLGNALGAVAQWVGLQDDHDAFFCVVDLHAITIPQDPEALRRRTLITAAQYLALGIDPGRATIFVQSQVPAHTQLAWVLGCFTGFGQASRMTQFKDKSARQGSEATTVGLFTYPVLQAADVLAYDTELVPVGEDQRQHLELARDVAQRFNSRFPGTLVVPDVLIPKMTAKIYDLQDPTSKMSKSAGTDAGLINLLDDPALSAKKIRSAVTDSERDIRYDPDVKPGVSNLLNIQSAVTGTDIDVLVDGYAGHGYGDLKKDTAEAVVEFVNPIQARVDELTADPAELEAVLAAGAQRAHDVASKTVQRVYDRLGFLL
UniProt P9WPC5, whole entry: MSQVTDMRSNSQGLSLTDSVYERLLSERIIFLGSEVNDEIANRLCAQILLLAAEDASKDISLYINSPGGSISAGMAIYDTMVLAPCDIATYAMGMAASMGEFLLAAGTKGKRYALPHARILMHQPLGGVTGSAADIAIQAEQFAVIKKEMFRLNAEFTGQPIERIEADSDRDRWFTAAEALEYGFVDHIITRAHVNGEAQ
UniProt P9WPC3, whole entry partner: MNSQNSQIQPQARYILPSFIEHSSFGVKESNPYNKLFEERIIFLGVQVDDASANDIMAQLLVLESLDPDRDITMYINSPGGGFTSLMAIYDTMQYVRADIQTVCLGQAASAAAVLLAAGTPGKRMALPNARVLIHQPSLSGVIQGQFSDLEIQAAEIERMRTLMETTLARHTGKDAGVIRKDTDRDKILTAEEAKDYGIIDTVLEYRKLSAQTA

Data taken from ChEMBL document CHEMBL3988442, “University of Dundee, Small-Polar-MMV Screening Library” (2021).

PfKRS1: 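Lysine-tRNA ligase, Plasmodium falciparum 3D7 (UniProt Q8IDJ8). Enzyme assay of the cytosolic lysyl-tRNA synthetase in 384-well plates, read by luminescence. Compounds at 30 µM. Higher reads as stronger inhibition, judged from the few compounds that gave an IC50. Size under these conditions: about 69,000 compounds, about 49 of them at 50% or above in at least one test.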
Pks13 thioesterase: 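Enzyme assay of the thioesterase domain of polyketide synthase 13; the read-out is not stated. Target: Polyketide synthase Pks13, Mycobacterium tuberculosis (UniProt I6X8D2). Tested at 30 µM. Higher reads as stronger inhibition (inferred from which compounds were picked for retests). Of about 67,000 compounds tested this way, about 300 (0.46%) reached 50% or more in at least one test.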
CoaBC: 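Enzyme assay of CoaBC with a phosphate dye (Biomol Green) read at 650 nm. Target: Coenzyme A biosynthesis protein CoaBC, Mycobacterium tuberculosis (UniProt P9WNZ1). Tested at 30 µM. Direction is inferred from only a few compounds that gave an IC50; most scored high, so higher reads as stronger inhibition. Most strong results did not repeat in a second test. Of about 67,000 compounds tested this way, about 40 (0.06%) reached 50% or more in at least one test.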
TcHisRS: 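Histidine-tRNA ligase, Trypanosoma cruzi CL Brener (UniProt Q4DA54). Enzyme assay of histidyl-tRNA synthetase; the read-out is not stated. Concentration: 30 µM. The record gives no direction; compounds that gave an IC50 in retests scored well above the rest, so higher reads as stronger inhibition. About 69,000 compounds were tested under these conditions; 0.045% (about 31) showed 50% or more at least once.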
MtTrpRS: 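Tryptophan-tRNA ligase, Mycobacterium tuberculosis (UniProt P9WFT3). Enzyme assay of tryptophanyl-tRNA synthetase; the read-out is not stated. Concentration: 10 µM. Higher most likely means stronger inhibition; the record gives no direction and few retests gave an IC50. About 65,000 compounds were tested under these conditions; 0.098% (about 64) showed 50% or more at least once.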
ClpP1P2: 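ClpP1P2, Mycobacterium tuberculosis (UniProt P9WPC5 and UniProt P9WPC3). Protease assay of ClpP1P2, read by the AMC dye that it sets free. Compounds at 50 µM. Higher reads as stronger inhibition, judged from the few compounds that gave an IC50. Most other retested compounds had strongly negative values. Of about 69,000 compounds tested this way, about 10 (0.015%) reached 50% or more in at least one test.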

Values are the deposited “Percent Effect”, in %.
The record does not define 0% and 100%; most values in the screen are far below 50% and negative numbers occur (in some assays of this library far below -100).
This is an unselected part of the compounds tested.
A dash means the value is not listed here; it may have been measured.

| # | structure | PfKRS1 | Pks13 thioesterase | CoaBC | TcHisRS | MtTrpRS | ClpP1P2 |
|---|---|---|---|---|---|---|---|
| 1 | `CCC1=N[C@@]2(CC[C@@H]3CN(S(=O)(=O)CC(C)C)C[C@@H]32)C(=O)N1C` | 6.229% | -23.75% | 5.196% | 6.522% | -2.095% | -5.198% |
| 2 | `CCC(C)NC(=O)CCNC(=O)Nc1ccc(-n2cncn2)c(F)c1` (stereo unspecified) | 0.1734% | -9.066% | 4.092% | 4.118% | -4.16% | -14.46% |
| 3 | `CC(C)(C)n1cc(CNC2CCN(C(=O)c3ccco3)CC2)cn1` | 0% | -0.5167% | - | 4.459% | 1.715% | 1.647% |
| 4 | `CSc1ccc(CNC(c2ccccc2)c2nccn2C)cc1` (stereo unspecified) | 4.833% | -2.93% | -1.349% | 1.916% | -0.4859% | 6.634% |
| 5 | `CC(NC(=O)NCCn1ccnc1)c1ccc2c(c1)OCCO2` (stereo unspecified) | 0.05262% | -22.15% | -1.05% | 2.286% | -5.387% | -15.59% |
| 6 | `CCC1=N[C@@]2(CC[C@@H]3CN(CC(=O)N(C)C)C[C@@H]32)C(=O)N1CC(C)C` | 2.409% | 8.309% | 5.764% | 3.659% | 1.66% | -11.36% |
| 7 | `COc1cccc(OC)c1-c1ccnc2cc(CC(=O)NC3CC3)nn12` | 1.532% | 11.48% | 1.325% | 1.13% | - | -2.829% |
| 8 | `COc1ccc(CC(=O)N2CC(=O)NCC(C)(C)C2)cc1` | -0.3453% | 3.958% | 0.6135% | 0% | - | -1.636% |
| 9 | `COCCNC(=O)c1sccc1N(C)S(=O)(=O)c1ccc(Cl)cc1` | 2.62% | -4.792% | 1.899% | -3.727% | 2.983% | -7.612% |
| 10 | `CC(=O)c1cc(Br)cc(F)c1OCC(=O)NC(C)C` | 0.5619% | -19.13% | 1.157% | 3% | 0.4405% | -5.668% |
| 11 | `Cc1nc(C2CCCN(S(C)(=O)=O)C2)sc1Br` (stereo unspecified) | 1.293% | -3.907% | 8.314% | 0.7692% | -6.59% | -4.474% |
| 12 | `Cc1cc(=O)n2c(n1)SCC2CC(=O)NCc1cc(-c2ccco2)on1` (stereo unspecified) | 5.736% | -19.96% | 2.133% | 3.415% | -4.653% | -1.945% |
| 13 | `CCC(CNC(=O)c1cc(CC(C)C)nn1C)N(C)CC` (stereo unspecified) | 0.2485% | - | - | 5.263% | 6.811% | -10.3% |
| 14 | `CCc1cc(C(=O)N2CCC3(CCCN(CC4CC4)C3=O)C2)cs1` (stereo unspecified) | -2.424% | -16.13% | 4.575% | 1.093% | -1.401% | -4.885% |
| 15 | `O=C(c1cccs1)N1CC[C@@H](N2CCOCC2)[C@@H]1Cc1ccccc1` | 6.192% | -5.908% | -11.76% | 9.091% | -2.441% | 4.994% |
| 16 | `O=c1cc(CN(CCO)C2CC2)nc2ccc(Br)cn12` | 1.947% | -16.29% | 7.923% | 7.955% | 7.046% | 12.06% |
| 17 | `CCOc1ccccc1CCN1Cc2ncccc2C1=O` | 5.589% | -2.863% | 8.249% | 8.427% | -1.21% | -2.866% |
| 18 | `O=C(c1csc(-c2ccco2)n1)N1CCN2CCCCC2C1` (stereo unspecified) | 6.099% | -25.22% | 0.3241% | 2.02% | -5.998% | -0.2013% |
| 19 | `N#Cc1ccc(C(=O)N2C[C@H](OCc3cccnc3)[C@H]3COC[C@H]32)cc1` | 3.38% | -19.6% | -2.469% | 3.738% | -4.083% | -0.5163% |
| 20 | `CN(Cc1ccc(F)cc1)Cc1nc(-c2cnccn2)no1` | 4.519% | -21.49% | 8.025% | 3.665% | -3.32% | -4.419% |
| 21 | `CCN(c1ccc(C(=O)N2CCCC(C)C2)cc1)S(=O)(=O)CC` (stereo unspecified) | -5.758% | 1.423% | -3.376% | 4.065% | -5.877% | -9.557% |
| 22 | `Cc1ccc(NC2CCN(C(=O)C(C(C)C)n3cncn3)CC2)nn1` (stereo unspecified) | 1.968% | -14.54% | -14.47% | 3.488% | -1.163% | -17.05% |
| 23 | `c1ccc(-c2cc(CN3C[C@@H]4CC[C@H](C3)N(CC3CCC3)C4)on2)cc1` | 1.721% | -48.26% | -38.76% | 21.59% | -5.857% | -7.244% |
| 24 | `CCn1cnnc1C1CCN(C(=O)c2cnc3ccccc3n2)CC1` | 2.867% | -19.65% | 4.184% | 3.261% | -7.309% | 2.361% |
| 25 | `CC(=O)N1CCO[C@@H]2CN(C(=O)c3ccccc3)CC[C@@H]2C1` | 0.7529% | 7.282% | 12.83% | 0% | 15.69% | 0.9751% |
| 26 | `Cc1c(Cn2ccnc2-c2cc(CN(C)C)cs2)cnn1C` | 7.594% | 17.15% | -18.05% | -0.8% | -5.611% | -1.039% |
| 27 | `CNCc1cnc(Nc2ccccc2)nc1` | 5.826% | -23.23% | -4.603% | 4.167% | -1.43% | 5.973% |
| 28 | `CNC(=O)[C@H]1C[C@@H]2CN(C(=O)c3ccc(C)nc3)C[C@@H]2N1C` | 1.059% | -19.04% | 1.97% | 3.093% | -5.315% | 2.676% |
| 29 | `O=C(NC1CC1)C1CCCN1c1ncnc2ccsc12` (stereo unspecified) | 2.589% | -30.34% | 5.511% | 5.051% | -4.873% | 5.969% |
| 30 | `CC(O)C(=O)N1CCC(c2[nH]ncc2-c2ccccc2)CC1` (stereo unspecified) | -0.5991% | -16.12% | 0.9709% | 15.08% | 4.088% | 21.65% |
| 31 | `Cc1ccc(C)c(NC(=O)Nc2c[nH]c(=O)[nH]c2=O)c1` | 6.61% | -5.126% | 4.689% | 4.348% | 2.536% | -7.504% |
| 32 | `CC(C)OCCCNC(=O)CN(c1ccc(F)c(F)c1)S(C)(=O)=O` | 3.035% | -15.58% | 2.895% | -0.5917% | 6.482% | -9.708% |
| 33 | `CCC(C)(NCC(=O)Nc1nc(C)cs1)c1nc(C)cs1` (stereo unspecified) | -4.39% | -15.28% | -2.203% | 0.8475% | -1.676% | 11.66% |
| 34 | `CCOCc1nnc(NCc2ccsc2)o1` | -1.764% | -16.73% | - | 9.211% | 1.032% | -3.141% |
| 35 | `CCc1nnsc1C(=O)N1CCCC(c2nc3ccccc3[nH]2)C1` (stereo unspecified) | 5.516% | -16.65% | 1.533% | 2.424% | -0.4944% | -8.205% |
| 36 | `CC(=O)N1CC2(CCCCN2Cc2ccc(Cl)cc2)Cc2ccccc21` (stereo unspecified) | 12.37% | -10.31% | 6.316% | 2.959% | 0.7779% | 27.25% |
| 37 | `O=C(NCCN1CCOCC1)c1nc2ccccc2c(=O)[nH]1` | 2.982% | -5.178% | 1.515% | 5.263% | -0.9104% | -9.734% |
| 38 | `O=C(NCC(Cc1cccc(F)c1)N1CCCC1=O)c1ccccc1` (stereo unspecified) | 4.44% | -23.28% | 0.6397% | 8.264% | -4.775% | -13.25% |
| 39 | `Cc1cccc(NC(=O)CN(C)C(=O)c2ccc(OC(C)C)nc2)n1` | -3.779% | -24.34% | -13.45% | 5.556% | -5.317% | 4.462% |
| 40 | `COc1ccc(CN2CCC3(CC(=O)N(c4cccc(F)c4)C3)C2)cc1` (stereo unspecified) | 3.985% | -4.326% | 3.271% | 1.087% | -6.372% | 4.604% |
| 41 | `O=C(NCCOc1ccc2c(c1)CCC2)N1CCS(=O)(=O)CC1` | -4.267% | -15.37% | 0.5181% | 0.7634% | -4.083% | 10.5% |
| 42 | `CC(C)(O)CN1CCN(C(=O)c2cccc(CC#N)c2)CC1` | 1.659% | -10.58% | -15.91% | 5.187% | -3.634% | -21.47% |
| 43 | `Cc1ccc(NC(=O)C2CCCN2C(=O)C2CC2)nc1` (stereo unspecified) | 5.569% | -40.74% | -0.6479% | -4.082% | 5.038% | 3.736% |
| 44 | `COc1cc(NC(=O)N2CCCC2c2ccco2)cc(OC)c1` (stereo unspecified) | 2.068% | -11.92% | 4.722% | 2.97% | -0.9331% | -13.16% |
| 45 | `COc1cccc(N2CCN(CC(O)c3cc(C)ccc3C)CC2)c1` (stereo unspecified) | -4.492% | -27.86% | 3.104% | 3.261% | -1.165% | 3.802% |
| 46 | `COCCCNC(=O)c1cc(-c2cnc(N3CCOCC3)nc2)cn1C` | 2.821% | 0.3122% | 2.75% | 6.863% | -1.095% | -8.074% |
| 47 | `CC1=N[C@@]2(CC[C@@H]3CN(C(=O)NC(C)C)C[C@@H]32)C(=O)N1CC1CC1` | 3.71% | -0.3964% | -3.226% | 8.458% | 2.138% | -3.196% |
| 48 | `COC[C@@]12CCO[C@@H]1CCN(C(=O)COc1ccccc1OC)C2` | 7.238% | -28.55% | 0.2151% | 1.653% | -0.5757% | 10.19% |
| 49 | `Cc1noc(C)c1CN1CCn2cc(CNC(=O)C3CCC3)nc2C1` | 7.803% | 7.321% | 3.909% | 4.902% | 2.278% | -6.582% |
| 50 | `CCCS(=O)(=O)N1CCN(CCCO)CC1` | 2.769% | 2.678% | 3.145% | 2.679% | 0.4082% | 14.01% |
| 51 | `Cc1ccc(C(=O)N2CCSCC2)cc1N1CCNC1=O` | 8.898% | -28.66% | 4.113% | -2.235% | -3.476% | -0.7071% |
| 52 | `COc1cc2c(cc1C(=O)N1CCCCC1c1ccccn1)CCC2` (stereo unspecified) | 2.273% | -20.75% | 4.342% | 1.212% | -0.3708% | -13.04% |
| 53 | `COc1ccc(CNC(=O)NC2CCN(CC(F)F)CC2)cc1C` | 2.857% | -19.07% | -3.084% | -1.695% | -0.6706% | -1.886% |
| 54 | `CN(Cc1ccco1)[C@@H]1CN(Cc2ccc(F)cc2)C[C@@H]2CCCO[C@@H]21` | 6.792% | - | 2.703% | 7.104% | 2.589% | 7.626% |
| 55 | `CC(C)NC(=O)C1CCN(c2snc3ccccc23)CC1` | 1.15% | 2.707% | 3.435% | 3.944% | -5.879% | 6.125% |

The last 5 entries again:

* Cc1ccc(C(=O)N2CCSCC2)cc1N1CCNC1=O | PfKRS1: 8.898%; Pks13 thioesterase: -28.66%; CoaBC: 4.113%; TcHisRS: -2.235%; MtTrpRS: -3.476%; ClpP1P2: -0.7071%
* COc1cc2c(cc1C(=O)N1CCCCC1c1ccccn1)CCC2 (stereo unspecified) | PfKRS1: 2.273%; Pks13 thioesterase: -20.75%; CoaBC: 4.342%; TcHisRS: 1.212%; MtTrpRS: -0.3708%; ClpP1P2: -13.04%
* COc1ccc(CNC(=O)NC2CCN(CC(F)F)CC2)cc1C | PfKRS1: 2.857%; Pks13 thioesterase: -19.07%; CoaBC: -3.084%; TcHisRS: -1.695%; MtTrpRS: -0.6706%; ClpP1P2: -1.886%
* CN(Cc1ccco1)[C@@H]1CN(Cc2ccc(F)cc2)C[C@@H]2CCCO[C@@H]21 | PfKRS1: 6.792%; CoaBC: 2.703%; TcHisRS: 7.104%; MtTrpRS: 2.589%; ClpP1P2: 7.626%
* CC(C)NC(=O)C1CCN(c2snc3ccccc23)CC1 | PfKRS1: 1.15%; Pks13 thioesterase: 2.707%; CoaBC: 3.435%; TcHisRS: 3.944%; MtTrpRS: -5.879%; ClpP1P2: 6.125%